PubChem BioAssay AID1259425 | University of Nebraska Medical Center, 2018
In all, the deposit lists about 14,000 reagents; below is a part drawn at random. Not all columns of the deposit are shown. No sequences are given here. Not stated in the record: the time to read-out.

- Screen: 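Seek colon cancer weak points whose silencing resembles KSR1 loss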 (primary screen)
- Cells: HCT116 human colon cancer cells
- Reagent: siRNA pool against human genes, 50 nM siRNA
- Measurement: 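After 50 nM siRNA pool, branched-DNA assay measures six marker transcripts per well, minus blank, normalised to the geometric mean of two housekeeping transcripts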
- Scale: BNIP3L mRNA: higher = more BNIP3L transcript after knockdown; NDRG1 mRNA: higher = more NDRG1 transcript after knockdown; BNIP3 mRNA: higher = more BNIP3 transcript after knockdown

"BNIP3L mRNA, set 1","NDRG1 mRNA, set 1","BNIP3 mRNA, set 1",gene
0.0508,0.0937,0.157,KLHL4 (GeneID 56062)
0.176,0.297,0.343,DRD2 (GeneID 1813)
0.103,0.278,0.257,ZFYVE19 (GeneID 84936)
0.0811,0.135,0.236,SETD1A (GeneID 9739)
0.0821,0.513,0.322,KMT2C (GeneID 58508)
0.141,0.227,0.441,MLEC (GeneID 9761)
0.107,0.262,0.164,TGM5 (GeneID 9333)
0.15,0.294,0.313,AKAP3 (GeneID 10566)
0.124,0.174,0.308,CYP20A1 (GeneID 57404)
0.0664,0.264,0.365,DYNLL2 (GeneID 140735)
0.0635,0.29,0.211,MRPL32 (GeneID 64983)
0.107,0.308,0.227,MPHOSPH10 (GeneID 10199)
0.117,0.167,0.232,MAD2L1BP (GeneID 9587)
0.161,0.106,0.325,TGFBR1 (GeneID 7046)
0.139,0.108,0.173,NBPF3 (GeneID 84224)
0.0713,0.0749,0.242,RLN2 (GeneID 6019)
0.0642,0.209,0.367,AP5M1 (GeneID 55745)
0.145,0.281,0.225,SEC16A (GeneID 9919)
0.11,0.15,0.218,CAPNS1 (GeneID 826)
0.102,0.655,0.264,INTS2 (GeneID 57508)
0.105,0.412,0.315,FAM111A (GeneID 63901)
0.132,0.0654,0.199,JAK1 (GeneID 3716)
0.232,0.418,0.478,CD96 (GeneID 10225)
0.106,0.294,0.438,CLDN14 (GeneID 23562)
0.075,0.141,0.243,ERF (GeneID 2077)
0.187,0.615,0.301,RPF2 (GeneID 84154)
0.112,0.37,0.185,SNRPD3 (GeneID 6634)
0.0674,0.111,0.24,MINPP1 (GeneID 9562)
0.331,0.689,0.292,CBLL1 (GeneID 79872)
0.174,0.303,0.21,ZNRF1 (GeneID 84937)
0.303,0.696,0.622,FOLR1 (GeneID 2348)
0.104,0.166,0.22,RABGEF1 (GeneID 27342)
0.231,1.32,0.52,SNCG (GeneID 6623)
0.108,0.102,0.309,INHBA (GeneID 3624)

An excerpt from above, reduced to “BNIP3L mRNA, set 1”.
SEC16A (GeneID 9919)	0.145
CAPNS1 (GeneID 826)	0.11
INTS2 (GeneID 57508)	0.102
